# According to PubChem BioAssay AID445 (National Center for Advancing Translational Sciences (NCATS), 2006):
# This is one part of the list. Shown are side measurements of this screen, not its main read-out; they come without a call. Compounds called inactive in the main read-out are mostly missing here. Words in brackets tell the shape of the fitted curve; partial curves, single points and poor fits give uncertain potencies.
# Assay: IkB Signaling
# Conditions: ABC-DLBCL IkBa-CBG/CBR dual luciferase ratio (green luciferase fused to IkBa over red control in OCI-Ly3 lymphoma cells), 4 h
# Outline: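 In this assay, an IκBα–CBG68 fusion accumulates when IKK-driven degradation is blocked; native CBR normalizes for cell number. OCI-Ly3 cells were treated 4 h with compound and doxycycline, then green and red light read after Chroma-Glo addition.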
# [1] = measured here: control luc red channel unless noted
# [2] = measured here: IkB-luc green channel
# [3] = measured here: control luc red channel
structure (smiles),measurement,setting,value
CCOc1ccc(CCNC(=O)c2cc3cccc4c3n2CCS4)cc1,AC50,[1],"20 µM [falling, partial curve]"
COC(=O)c1c(-c2ccc(Cl)cc2)noc1N1CCN(c2cc(C)ccc2C)CC1,AC50,[1],"1.58 µM [falling, partial curve]"
COc1cccc(CN2CCN(C(=O)c3cccc4ccccc34)CC2)c1OC,AC50,[1],"31.6 µM [falling, single point]"
CCCn1c(SCC(=O)Nc2ccccc2-c2ccccc2)nnc1-c1ccoc1C,AC50,[1],"31.6 µM [falling, single point]"
Cc1cc(C)c(NC(=O)CSc2ncc3c(n2)-c2cc(Cl)ccc2N(C)S3(=O)=O)c(C)c1,AC50,[2],"1.58 µM [rising, full curve]"
same,AC50,[3],"1.58 µM [rising, full curve]"
C=Cc1ccc(Cn2c(C(=O)O)c(CNCc3ccc(F)cc3)c3ccc(C)cc32)cc1,AC50,[1],"12.6 µM [falling, partial curve]"
COC(=O)c1c(NC(=O)c2ccc(S(=O)(=O)N3CCC(C)CC3)cc2)sc2c1CCN(C)C2,AC50,[1],"31.6 µM [falling, single point]"
Cc1ccccc1CNC(=O)c1cnc2sc(N3CCC(C)CC3)nn2c1=O,AC50,[1],"10 µM [rising, partial curve]"
Cc1cc(C)c(NC(=O)C2CCN(c3nc4ccccc4n4cccc34)CC2)c(C)c1,AC50,[1],"20 µM [falling, partial curve]"
Cc1sc2nc(SCc3nc4ccccc4[nH]3)n(Cc3ccco3)c(=O)c2c1C,AC50,[1],"2 µM [falling, full curve]"
CN(C(=O)CSc1nnc(NC(=O)Nc2ccccc2)s1)c1ccccc1,AC50,[1],"39.8 µM [falling, single point]"
Brc1cccc(-c2nnn3c2nc(NCc2ccc4c(c2)OCO4)c2ccccc23)c1,AC50,[1],"0.0631 µM [falling, full curve]"
O=C(NCC(c1cccnc1)N1CCc2ccccc21)c1cccc(Br)c1 (stereo not drawn),AC50,[1],"25.1 µM [falling, single point]"
COc1ccc(-n2ncc(C(=O)NCc3ccco3)c2C2CCN(C(=O)OC(C)(C)C)CC2)cc1,AC50,[1],"20 µM [falling, partial curve]"
COc1ccc(NC(=O)C2CCN(S(=O)(=O)c3cccc(-c4noc(C)n4)c3)CC2)cc1OC,AC50,[1],"3.98 µM [rising, single point]"
CCOC(=O)c1oc2ccc(S(=O)(=O)n3nc(-c4ccc(C)cc4)cc3N)cc2c1C,AC50,[1],"25.1 µM [falling, single point]"
COc1cccc2sc(N(Cc3cccnc3)C(=O)c3ccc4c(c3)OCCO4)nc12,AC50,[1],"15.8 µM [falling, partial curve]"
O=C(Nc1ccc2c(c1)OCO2)c1cccc(Cl)c1,AC50,[1],"25.1 µM [falling, single point]"
O=C(Nc1ccc(-c2cn3ccsc3n2)cc1)c1ccc(F)c(S(=O)(=O)N2CCOCC2)c1,AC50,[1],"39.8 µM [rising, single point] [measured here: IkB-luc green channel]"
CCN(CC)CCOC(=O)c1ccc(NC(=O)c2cc3c(=O)n(CC)c4ccccc4c3s2)cc1,AC50,[1],"0.794 µM [falling, full curve]"
COc1ccccc1C1c2c(-c3ccc(Cl)cc3)n[nH]c2C(=O)N1c1ccc(C)cc1 (stereo not drawn),AC50,[1],"12.6 µM [falling, partial curve]"
Cc1ccccc1C(=O)Nc1cccc(OCc2cc(=O)n3c(C)csc3n2)c1,AC50,[1],"31.6 µM [falling, single point]"
Cc1ccc(S(=O)(=O)N2CCC(C(=O)NCc3ccccc3Cl)CC2)cc1,AC50,[1],"1.58 µM [falling, partial curve, poor fit]"
Cc1ccccc1S(=O)(=O)Cc1ccc(C(=O)N2CCN(c3cccc(Cl)c3)CC2)o1,AC50,[1],"20 µM [falling, partial curve]"
COc1ccccc1N1CCN(c2ncnc3c2nnn3C)CC1,AC50,[1],"3.98 µM [rising, partial curve]"
CN(c1ccccc1)S(=O)(=O)c1ccc(NC(=O)c2nc(S(C)(=O)=O)ncc2Cl)cc1,AC50,[1],"3.98 µM [falling, full curve]"
COC(=O)c1c(NC(=O)CCCOc2cccc(C)c2)sc2c1CCC2,AC50,[1],"15.8 µM [falling, single point]"
COc1ccc(C(=O)N2CCC[C@@]3(CCN(c4cccc(-c5ccccc5)c4)C3)C2)cc1,AC50,[1],"3.16 µM [falling, partial curve]"
CC(=O)Nc1ccc(S(=O)(=O)N2CCN(C(C)CCc3ccccc3)CC2)cc1 (stereo not drawn),AC50,[1],"15.8 µM [falling, partial curve]"
O=C(c1ccco1)c1nnn(Cc2ccccc2)c1-c1ccccc1,AC50,[1],"31.6 µM [falling, single point]"
Cc1cc(C)n(-c2nnc(Nc3ccc(C)c(C)c3)c3ccccc23)n1,AC50,[1],"39.8 µM [falling, single point]"
O=C1Nc2ccccc2Oc2cc(Oc3ccccc3)ccc21,AC50,[1],"5.01 µM [rising, partial curve]"
Cc1cccc(NC(=O)Cn2cc(C(=O)C3CCCCC3)c3ccccc32)c1,AC50,[1],"7.94 µM [falling, partial curve]"
CCOC(=O)COc1ccc(C2C(C(=O)OC)=C(C)NC3=C2C(=O)c2ccccc23)cc1Cl (stereo not drawn),AC50,[1],"7.94 µM [falling, partial curve]"
CCOC(=O)CC(NC(=O)CCc1c(C)nc2c(-c3ccccc3)c(C)nn2c1C)c1ccc(OC(C)C)cc1 (stereo not drawn),AC50,[1],"20 µM [falling, partial curve]"
CSc1ccc(CCNC(=O)NCc2noc3ccccc23)cc1,AC50,[1],"25.1 µM [falling, single point]"
COc1ccc(CNc2nc(-c3ccco3)nn2S(=O)(=O)c2ccc(Cl)cc2)cc1OC,AC50,[1],"12.6 µM [falling, partial curve]"
O=C(CSc1cn(CC(=O)N2CCCC2)c2ccccc12)Nc1ccc(Cl)cc1,AC50,[1],"12.6 µM [falling, partial curve]"
CCCCCCCCCCCCC/C=C\[C@H](O)[C@H](N)CO,AC50,[1],"39.8 µM [falling, partial curve, poor fit] [measured here: IkB-luc green channel]"
O=C(Nc1cccc(C(F)(F)F)c1)c1ccc2snnc2c1,AC50,[1],"3.98 µM [rising, partial curve]"
CCOC(=O)C1CCCN(c2ncnc3c2nnn3C)C1 (stereo not drawn),AC50,[1],"5.01 µM [rising, partial curve]"
COc1cccc(NC(=O)c2oc3ccccc3c2NC(=O)c2cc3ccccc3o2)c1,AC50,[1],"15.8 µM [falling, partial curve]"
CCCOC(=O)Nc1nc2ccccc2o1,AC50,[1],"25.1 µM [falling, single point]"
O=S(=O)(Nc1ccc(F)cc1F)c1ccc(-n2cccn2)cc1,AC50,[1],"31.6 µM [falling, single point]"
CCOc1ccc(-c2nnc(SCC(=O)c3ccc(Br)cc3)n2-c2ccccc2)cc1,AC50,[1],"20 µM [rising, single point]"
CC(C)c1ccc(Nc2nc(NCc3ccco3)nc(N3CCOCC3)n2)cc1,AC50,[1],"39.8 µM [falling, single point]"
O=C(Nc1cccc(Cl)c1)Nc1ccc2c(c1)OCO2,AC50,[1],"12.6 µM [falling, partial curve]"
CCN(CC)c1ccc2cc(-c3nc(-c4ccccc4F)no3)c(=O)oc2c1,AC50,[1],"0.126 µM [falling, full curve]"
Cc1cc(C)c(S(=O)(=O)Nc2ccc(-c3ccc(N4CCCCCC4)nn3)cc2)cc1C,AC50,[1],"3.98 µM [falling, full curve]"
Cc1c(NC(=O)C(C)OC(=O)CC2Sc3ccccc3NC2=O)c(=O)n(-c2ccccc2)n1C (stereo not drawn),AC50,[1],"12.6 µM [falling, partial curve]"
Cc1cccc(NC(=O)CSc2nc3c(sc4ccccc43)c(=O)n2CCCC(=O)NC2CCCC2)c1,AC50,[1],"20 µM [falling, single point]"
CCCOC(=O)CSc1nnc(-c2ccccc2Cl)o1,AC50,[1],"5.01 µM [falling, partial curve] [measured here: IkB-luc green channel]"
Cc1cc(C)c2c(=O)cc(C(=O)NCc3ccc(S(N)(=O)=O)cc3)oc2c1,AC50,[1],"3.98 µM [rising, partial curve]"
COCCCNC(=O)CSc1nc(-c2ccc(OC)c(OC)c2)[nH]c1-c1ccc(F)cc1,AC50,[1],"31.6 µM [falling, single point]"
CCc1ccc(NC(=O)CCc2nnc3n(C)c(=O)c4sccc4n23)cc1,AC50,[1],"31.6 µM [falling, single point]"
Cc1cc(C)cc(NC(=O)Cn2c(=O)n(Cc3ccco3)c(=O)c3oc4ccccc4c32)c1,AC50,[1],"39.8 µM [falling, single point]"
Cc1cccc(NC(=O)C2CCCN(S(=O)(=O)c3ccc(Br)s3)C2)c1 (stereo not drawn),AC50,[1],"12.6 µM [falling, partial curve]"
O=C(CSc1nnc(Cc2ccccc2)n1Cc1ccco1)NC12CC3CC(CC(C3)C1)C2,AC50,[1],"20 µM [falling, partial curve]"
COc1ccc(NC(=O)Cn2nnc3sc4c(c3c2=O)CCCC4)cc1,AC50,[1],"0.2 µM [falling, partial curve, poor fit]"
Cc1ccc(NC(=O)CN2C(=O)COc3ccc(S(=O)(=O)Nc4ccccc4)cc32)c(C)c1,AC50,[1],"31.6 µM [falling, partial curve]"
O=C(Nc1cccc2ccccc12)OC1C=CS(=O)(=O)C1 (stereo not drawn),AC50,[2],"20 µM [falling, partial curve]"
same,AC50,[3],"12.6 µM [falling, partial curve]"

# Four records drawn at random from those above:
structure (smiles),measurement,setting,value
Cc1cc(C)c2c(=O)cc(C(=O)NCc3ccc(S(N)(=O)=O)cc3)oc2c1,AC50,[1],"3.98 µM [rising, partial curve]"
CCOC(=O)CC(NC(=O)CCc1c(C)nc2c(-c3ccccc3)c(C)nn2c1C)c1ccc(OC(C)C)cc1 (stereo not drawn),AC50,[1],"20 µM [falling, partial curve]"
Cc1cccc(NC(=O)CSc2nc3c(sc4ccccc43)c(=O)n2CCCC(=O)NC2CCCC2)c1,AC50,[1],"20 µM [falling, single point]"
Cc1c(NC(=O)C(C)OC(=O)CC2Sc3ccccc3NC2=O)c(=O)n(-c2ccccc2)n1C (stereo not drawn),AC50,[1],"12.6 µM [falling, partial curve]"
